Source: PubChem BioAssay AID588590 (National Center for Advancing Translational Sciences (NCATS), 2011)
Where “and” joins values, the source holds several entries; their conditions need not be identical. Equal values may be shown once. In all, about 390,000 compounds went through this assay and about 4,000 (1%) were called active. The inconclusive results got no clear call from the source; some entries with a clear call stand among them for comparison. The call rests on the fitted dose curve; in most records, active means well fitted inhibition curve with a large enough effect; inconclusive means small, poorly fitted or top-dose-only effect, or another doubt; inactive means no such curve, though single readings can be large or run the other way. A potency beside an inconclusive call is a rough fit, not a confirmed value.

Protein sequences, listed by entry. Tags and fused reporters are not part of them. Lines headed by an entry give the natural chain unless they say otherwise; changes in a name come on top.
UniProt Q9UNA4: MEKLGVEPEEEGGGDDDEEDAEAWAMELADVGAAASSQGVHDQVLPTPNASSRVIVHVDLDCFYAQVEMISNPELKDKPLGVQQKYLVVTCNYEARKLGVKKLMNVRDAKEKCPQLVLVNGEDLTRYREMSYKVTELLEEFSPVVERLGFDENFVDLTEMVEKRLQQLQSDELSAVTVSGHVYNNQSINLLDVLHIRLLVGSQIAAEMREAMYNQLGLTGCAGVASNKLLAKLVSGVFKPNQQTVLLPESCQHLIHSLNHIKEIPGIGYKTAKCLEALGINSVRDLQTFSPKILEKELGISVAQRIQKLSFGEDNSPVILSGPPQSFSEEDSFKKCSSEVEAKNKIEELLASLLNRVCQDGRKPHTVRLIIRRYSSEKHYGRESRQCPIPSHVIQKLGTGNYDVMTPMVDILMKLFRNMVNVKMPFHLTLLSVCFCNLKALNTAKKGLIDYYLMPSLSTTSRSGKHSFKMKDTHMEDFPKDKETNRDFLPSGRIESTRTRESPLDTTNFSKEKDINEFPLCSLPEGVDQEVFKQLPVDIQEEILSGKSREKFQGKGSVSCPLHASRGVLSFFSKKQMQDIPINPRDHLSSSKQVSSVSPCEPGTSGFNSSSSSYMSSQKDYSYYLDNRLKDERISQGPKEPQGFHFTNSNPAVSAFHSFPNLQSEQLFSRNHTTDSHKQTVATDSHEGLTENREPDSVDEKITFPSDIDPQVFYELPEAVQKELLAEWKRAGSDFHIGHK

What follows are compounds tested against DNA polymerase iota (Homo sapiens) (UniProt Q9UNA4) (assay: qHTS for Inhibitors of Polymerase Iota). Conditions: Pol iota fluorescent replication assay, 10 min; series mostly up to 115 µM.
Summary of the method: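 Fluorescent replication assay read twice, at 0 min and 10 min after adding 50 nM (final) substrate. Enzyme (10 nM) and compounds were first incubated 15 min at room temperature; enzyme-free buffer wells were negative controls.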
Potency means the concentration at half of the fitted maximal effect.

Potency, inactive:
CC(C)(C)OC(=O)NC(CNCc1ccccc1)Cc1ccccc1 (centres undefined)
Cc1ccc(CC(=O)NNC(=O)c2ccncc2)cc1C
Cc1cc(=O)oc2cc(OCC(=O)N3CCCc4ccccc43)ccc12
COc1ccc(-c2c[n+](CC(=O)c3ccccc3)c3n2CCCCC3)cc1
COCCNC(=O)CSc1nnc(-c2ccc(OC)c(OC)c2)c(-c2ccc(OC)c(OC)c2)n1
Cc1cccc(C2NC(=O)c3c(sc4c3CCN(C)C4)N2)c1O (centres undefined)
O=C(CSc1nc2[nH]c(=O)cc(O)c2s1)Nc1nccs1
O=C(NC1CCCC1)c1ccc(COCC(F)(F)C(F)F)o1
Cc1cc(N(C)C)cc(C)c1C=O
O=C(Nc1nccs1)c1ccc(Br)o1
CCCCC(=O)NC(=S)Nc1cccc(C(=O)O)c1
COCCN1C(=O)N(c2cccc(C)c2)C(=O)C1CC(=O)Nc1ccc(F)cc1 (centres undefined)
COc1cccc2c(Nc3ccccc3C)cc(C)nc12
COc1cccc(CSc2nc3n(n2)C(c2ccccc2C)C(C(=O)Nc2ccccc2OC)=C(C)N3)c1 (centres undefined)
CCOc1ccccc1NC(=O)COC(=O)c1c[nH]c2ccccc12
O=C(Nc1ccc(S(=O)(=O)N2CCC(c3nc4ccccc4s3)CC2)cc1)c1ccccc1F
Cc1cccc(C(=O)Nc2ccc(N3CCC(CCN4CCOCC4)CC3)c(C(=O)O)c2)c1
CCCCCOc1ccc(C(=O)N(Cc2ccccc2)C2CCS(=O)(=O)C2)cc1 (centres undefined)
COc1ccc(Nc2nnc(-c3ccc(C)c(S(=O)(=O)N4CCOCC4)c3)c3ccccc23)cc1
CC(NS(=O)(=O)c1ccccc1[N+](=O)[O-])c1ccccn1 (centres undefined)
O=C(NCc1ccco1)C(c1ccc(F)cc1)N(CC1CCCO1)C(=O)Cn1nnc2ccccc21 (centres undefined)
CCc1ccc(C2c3c(n[nH]c3C)C(=O)N2c2ccc(C)cc2)cc1 (centres undefined)
CC1CN(c2ccccc2)c2nc3c(c(=O)[nH]c(=O)n3C)n2C1 (centres undefined)
CCc1cccc(NC(=O)CCS(=O)(=O)c2ccc(C)cc2)c1
CCOc1ccccc1NC(=O)C1CCN(C(=O)C2CC(=O)N(c3ccc(C)cc3)C2)CC1 (centres undefined)

Potency, inconclusive:
C=C1CC(COc2cc(=O)oc3ccccc23)(c2ccccc2)OC1=O (centres undefined) 12.6 µM [inhibitor, partial curve, poor fit]
C=CCc1cccc2cc(C(=O)NCc3ccc(C(=O)OCC)o3)c(=O)oc12 44.7 µM [inhibitor, full curve, poor fit]
Cc1nnc2sc(-c3cccc(F)c3)nn2c1=O 25.1 µM [inhibitor, partial curve, poor fit]
Cn1c(SCC(=O)Nc2ccc3c(c2)oc2ccccc23)nnc1-c1ccccc1 39.8 µM [inhibitor, partial curve, poor fit] and 79.4 µM [inhibitor, partial curve]
CC[C@H]1c2[nH]c3ccc(C(C)C)cc3c2[C@@H]2CCN3C(=O)CCC[C@H]1[C@H]23 22.4 µM [inhibitor, partial curve, poor fit]
COc1ccc(N(CC(=O)N2CCN(c3cc(C)ccc3C)CC2)S(=O)(=O)c2c(C)noc2C)cc1 89.1 µM [inhibitor, single point]
COc1cc(NC2c3ncccc3C(=O)N2Cc2ccco2)cc(OC)c1 (centres undefined) 2.51 µM [inhibitor, full curve, poor fit]
COc1ccc(/C=C2\SC(=S)N(C(C(=O)O)c3ccccc3)C2=O)c(OC)c1 (centres undefined) 22.4 µM [inhibitor, single point]
O=C(CSc1ccc(Cl)cc1)c1ccco1 1.41 µM [inhibitor, full curve, poor fit]
COc1ccc(Br)c2c1-c1nc(NC(=O)c3ccccc3SC)sc1C2 25.1 µM [inhibitor, partial curve]
CCN(CC)CCCN1C(=O)C(=O)/C(=C(/O)c2cc(C)ccc2C)C1c1cccnc1 (centres undefined) 10 µM [inhibitor, partial curve, poor fit]
CCCCC(=O)Nc1ccc(C(=O)NNC(=O)c2ccc(C)c(Br)c2)cc1 39.8 µM [inhibitor, full curve]
O=C(CN1C(=O)CC(c2ccco2)Sc2ccccc21)NCC1CCCO1 (centres undefined) 22.4 µM [inhibitor, full curve, poor fit]
CC1(C)Cc2c(c(-c3ccccc3)nc3sc4c(=O)[nH]c(=S)[nH]c4c23)CO1 39.8 µM [inhibitor, single point]
CCN1/C(=C/c2ccc3ccc(C)cc3[n+]2CC)Sc2ccccc21 70.8 µM [inhibitor, partial curve, poor fit]
Cc1oc2cc(O)ccc2c(=O)c1-c1nncn1-c1ccccc1 10 µM [inhibitor, full curve, poor fit]
O=C1C[C@H]2C=CCc3cccc(c32)CN1Cc1ccc(Br)cc1 22.4 µM [inhibitor, partial curve, poor fit]
COc1ccccc1C(=O)Nc1nc2ccccc2s1 89.1 µM [inhibitor, single point]
CN1CCN(C(=S)NC(=O)c2ccc(Cl)cc2)CC1 15.8 µM [inhibitor, single point]
Cc1nn2c(-c3cccc(NC(=O)CSc4nc5ccccc5o4)c3)nnc2c2ccccc12 14.1 µM [inhibitor, partial curve, poor fit]
CC(CC(=O)OCC(=O)Nc1ccc2[nH]c(=O)[nH]c2c1)c1ccccc1 (centres undefined) 50.1 µM [inhibitor, partial curve]
N#CCSc1nnc(SCC#N)s1 25.1 µM [inhibitor, full curve]
Nc1cnccc1C(=O)O 15.8 µM [inhibitor, full curve, poor fit]
CC1CCN(S(=O)(=O)c2ccc3nc(-c4ccccn4)cc(C(=O)NCCN(C)Cc4ccccc4)c3c2)CC1 5.62 µM [inhibitor, full curve, poor fit]
O=C1c2ccccc2NC(c2ccccc2)N1c1ccc(O)cc1 (centres undefined) 100 µM [inhibitor, partial curve, poor fit]
O=C(CSCc1ccc(Cl)cc1)NCCSCc1ccco1 0.708 µM [inhibitor, full curve, poor fit]
CCOC(=O)Cc1[nH]nc2c1C(C1C=CCCC1)C(C#N)=C(N)O2 (centres undefined) 25.1 µM [inhibitor, full curve, poor fit]
COCCCN(Cc1ccco1)C(=O)CSc1nc2ncccc2[nH]1 39.8 µM [inhibitor, single point]
O=C1CCCC/C1=C/Nc1ccc(S(=O)(=O)Nc2ncccn2)cc1 22.4 µM [inhibitor, partial curve, poor fit]
CC1=C(n2nnc3ccccc32)C(c2ccccc2)C(C#N)=C(N)O1 (centres undefined) 22.4 µM [inhibitor, partial curve, poor fit]
CC(=O)c1cccc(Nc2nc3ccccc3n3cnnc23)c1 17.8 µM [inhibitor, partial curve, poor fit]
COC(=O)c1cc(COC(=O)c2ccc3ccccc3n2)oc1C 100 µM [inhibitor, single point]
COc1ccc(/C=N/NC(=O)Cn2nc([N+](=O)[O-])cc2C)c(OC)c1OC 35.5 µM [inhibitor, partial curve, poor fit]
COc1ccc(NS(=O)(=O)c2cccc(C(=O)NN=C(C)c3ccco3)c2)cc1 39.8 µM [inhibitor, single point]
Cc1cc(-c2cc(-c3ccc(Cl)cc3)nc(N)c2C#N)co1 3.16 µM [inhibitor, full curve, poor fit]
Cc1c(C#N)c(NC(=O)CCl)n(Cc2ccc(F)cc2)c1C 35.5 µM [inhibitor, partial curve, poor fit]
C=CCN1C(=O)/C(=C\C=C2\N(C)c3ccccc3C2(C)C)SC1=S 3.16 µM [inhibitor, partial curve, poor fit]
CCOC(=O)CSc1nc(C)c(Oc2ccc(Cl)cc2Cl)c(=O)[nH]1 56.2 µM [inhibitor, partial curve, poor fit]
O=C(NN=C1CCCC1)c1ccc(O)cc1O 39.8 µM [inhibitor, partial curve]
CCC(C)NS(=O)(=O)c1ccc(S(=O)(=O)Nc2cc3c(cc2C(C)=O)OCO3)cc1 (centres undefined) 89.1 µM [inhibitor, partial curve, poor fit]
Cc1noc(/C=C/N(C)C)c1S(=O)(=O)N1CCCC(C(=O)NCc2ccco2)C1 (centres undefined) 11.2 µM [inhibitor, single point]

Not a retest: entries from further up.
Potency, inconclusive:
CC1(C)Cc2c(c(-c3ccccc3)nc3sc4c(=O)[nH]c(=S)[nH]c4c23)CO1 39.8 µM [inhibitor, single point]
CCN1/C(=C/c2ccc3ccc(C)cc3[n+]2CC)Sc2ccccc21 70.8 µM [inhibitor, partial curve, poor fit]
Cc1oc2cc(O)ccc2c(=O)c1-c1nncn1-c1ccccc1 10 µM [inhibitor, full curve, poor fit]
O=C1C[C@H]2C=CCc3cccc(c32)CN1Cc1ccc(Br)cc1 22.4 µM [inhibitor, partial curve, poor fit]
COc1ccccc1C(=O)Nc1nc2ccccc2s1 89.1 µM [inhibitor, single point]
CN1CCN(C(=S)NC(=O)c2ccc(Cl)cc2)CC1 15.8 µM [inhibitor, single point]
Cc1nn2c(-c3cccc(NC(=O)CSc4nc5ccccc5o4)c3)nnc2c2ccccc12 14.1 µM [inhibitor, partial curve, poor fit]
CC(CC(=O)OCC(=O)Nc1ccc2[nH]c(=O)[nH]c2c1)c1ccccc1 (centres undefined) 50.1 µM [inhibitor, partial curve]
N#CCSc1nnc(SCC#N)s1 25.1 µM [inhibitor, full curve]
Nc1cnccc1C(=O)O 15.8 µM [inhibitor, full curve, poor fit]
CC1CCN(S(=O)(=O)c2ccc3nc(-c4ccccn4)cc(C(=O)NCCN(C)Cc4ccccc4)c3c2)CC1 5.62 µM [inhibitor, full curve, poor fit]
O=C1c2ccccc2NC(c2ccccc2)N1c1ccc(O)cc1 (centres undefined) 100 µM [inhibitor, partial curve, poor fit]
O=C(CSCc1ccc(Cl)cc1)NCCSCc1ccco1 0.708 µM [inhibitor, full curve, poor fit]
CCOC(=O)Cc1[nH]nc2c1C(C1C=CCCC1)C(C#N)=C(N)O2 (centres undefined) 25.1 µM [inhibitor, full curve, poor fit]
COCCCN(Cc1ccco1)C(=O)CSc1nc2ncccc2[nH]1 39.8 µM [inhibitor, single point]
O=C1CCCC/C1=C/Nc1ccc(S(=O)(=O)Nc2ncccn2)cc1 22.4 µM [inhibitor, partial curve, poor fit]
CC1=C(n2nnc3ccccc32)C(c2ccccc2)C(C#N)=C(N)O1 (centres undefined) 22.4 µM [inhibitor, partial curve, poor fit]

Retrieved by compound from the list above, 2 records:
Potency, inconclusive:
CCOC(=O)CSc1nc(C)c(Oc2ccc(Cl)cc2Cl)c(=O)[nH]1 56.2 µM [inhibitor, partial curve, poor fit]
COc1ccc(N(CC(=O)N2CCN(c3cc(C)ccc3C)CC2)S(=O)(=O)c2c(C)noc2C)cc1 89.1 µM [inhibitor, single point]

Following part.

Potency, active:
COc1ccc(C(=O)COC(=O)/C=C/c2ccccc2)c(OC)c1 35.5 µM
Cc1ccc2nc(/C(C#N)=C/c3ccc(-c4cccc(Cl)c4)o3)[nH]c2c1 79.4 µM
CCOC(=O)c1c(C)oc2nc(C)nc(NCCCN3CCN(c4cccc(C)c4)C(C)C3)c12 (centres undefined) 89.1 µM
